PubChem BioAssay AID1259254, NCATS | 2017
Here is an unselected part of about 59,000 reagents. Of all reagents, about 1,550 (2.6%) got an active call. 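G2 share is only a proxy for re-replication; each gene was hit by three separate siRNAs, and active genes were retested.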 The raw values are shown without normalisation. A number with no mark means an inactive call. Reagents against one gene are numbered here. Not stated in the record: the amount of reagent.

Screen: 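Finding genes that stop cells copying their DNA twice in one cycle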 (primary screen)
Cells: human HCT116 colorectal cancer cells
Reagents: single siRNA against human genes
Timing: 3 days
Detection: 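Nuclei stained with Hoechst and imaged; cell-cycle phase assigned by DNA content; G2 share scaled per plate, non-targeting siRNA 0%, GMNN siRNA 100%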
Direction: G2 robust z-score and G2 cells, % of GMNN control: higher = more G2 cells, more excess DNA replication; raw share of cells in G2: higher = larger share of cells with G2 DNA content
Active means: 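Active siRNAs have a G2 robust z of 5 or more median absolute deviations over the median, which in these data means about 38% or higher of GMNN control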

gene symbol | reagent no. | G2 robust z-score | G2 cells, % of GMNN control | raw share of cells in G2 (%)
SACK1B | 1 | 1.15 | 11.1 | 7.6
SACK1B | 2 | -0.597 | -1.23 | 2.71
SACK1B | 3 | -0.616 | -1.37 | 2.76
CD226 | 1 | -0.372 | 0.349 | 5.12
CD226 | 2 | 0.504 | 6.52 | 6.83
CD226 | 3 | -0.45 | -0.201 | 3.1
FLNB | 1 | -0.712 | -2.04 | 4.5
FLNB | 2 | 0.449 | 6.13 | 7.59
FLNB | 3 | -0.522 | -0.708 | 3.41
R3HDM2 | 1 | 7.94 (active) | 58.9 | 28.1
R3HDM2 | 2 | 1.82 | 15.8 | 10.7
R3HDM2 | 3 | -0.401 | 0.149 | 3.23
AGRN | 1 | -0.563 | -0.997 | 3.43
AGRN | 2 | -0.997 | -4.05 | 1.65
AGRN | 3 | 0.0774 | 3.51 | 6.14
ARHGEF17 | 1 | -0.296 | 0.882 | 5.73
ARHGEF17 | 2 | -0.546 | -0.871 | 3.58
ARHGEF17 | 3 | 3.09 | 24.7 | 12.4
SPATA31E2P | 1 | 2.36 | 19.5 | 10.5
SPATA31E2P | 2 | -0.607 | -1.3 | 2.63
SPATA31E2P | 3 | 2.2 | 18.4 | 10.7
SORCS3 | 1 | 0.0248 | 3.14 | 7.63
SORCS3 | 2 | -1.46 | -7.29 | 1.72
SORCS3 | 3 | -0.69 | -1.89 | 3.22
TMC4 | 1 | -1.48 | -7.41 | 1.34
TMC4 | 2 | 0.287 | 4.98 | 4.45
TMC4 | 3 | -0.224 | 1.39 | 3.55
ATOSB | 1 | -0.235 | 1.32 | 4.99
ATOSB | 2 | 0.0721 | 3.47 | 5.82
ATOSB | 3 | 0.369 | 5.56 | 3.9
CXorf58 | 1 | -0.289 | 0.931 | 3.92
CXorf58 | 2 | 0.505 | 6.52 | 5.36
CXorf58 | 3 | -0.561 | -0.977 | 2.88
FAM227B | 1 | -0.485 | -0.444 | 3.44
FAM227B | 2 | -0.828 | -2.86 | 2
FAM227B | 3 | -0.0381 | 2.7 | 3.62
FAAHP1 | 1 | 0.158 | 4.08 | 4.7
FAAHP1 | 2 | 3.67 | 28.8 | 15
FAAHP1 | 3 | -0.895 | -3.33 | 2.24
MAP1LC3B2 | 1 | 0.718 | 8.02 | 6.16
MAP1LC3B2 | 2 | -0.479 | -0.405 | 3.03
MAP1LC3B2 | 3 | -0.278 | 1.01 | 4.02
RB1 | 1 | 0.0818 | 3.54 | 5.32
RB1 | 2 | 0.901 | 9.31 | 8.18
RB1 | 3 | -1.1 | -4.77 | 2.86
NPSR1 | 1 | -0.627 | -1.44 | 4.48
NPSR1 | 2 | -0.0281 | 2.77 | 5.74
NPSR1 | 3 | 5.74 (active) | 43.3 | 18.6

Sorted by “G2 cells, % of GMNN control” (lowest first): 6 of the entries above
gene symbol | reagent no. | G2 robust z-score | G2 cells, % of GMNN control | raw share of cells in G2 (%)
AGRN | 2 | -0.997 | -4.05 | 1.65
AGRN | 1 | -0.563 | -0.997 | 3.43
FLNB | 3 | -0.522 | -0.708 | 3.41
R3HDM2 | 3 | -0.401 | 0.149 | 3.23
R3HDM2 | 2 | 1.82 | 15.8 | 10.7
R3HDM2 | 1 | 7.94 (active) | 58.9 | 28.1
